Variants at the floor of the assay are shown more often than the library holds them.
Assays:
[1] = test system: biotinyl-Val-oxazolone; experiment: self-aminoacylation, catalytic enhancement (BVO) (fold over background); higher = more active; k-Seq, kA / k0A0; sequences stand for … in GGGAAUGGAUCCACAUCUACGAAUUC…UUCACUGCAGACUUGACGAAGCUG
Method in brief: (§1)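 Mutagenized RNA pools (0.43 μM; 21-nt variable region) were treated with 2–1250 μM of each biotinyl-aminoacyl-oxazolone. Conditions were 50 μL HEPES/NaCl/KCl/MgCl2/CaCl2 buffer, 5% acetonitrile, pH 6.9–7.0, room temperature, 90 minutes. Catalytic enhancement, the median kA relative to the uncatalyzed rate, was derived from streptavidin capture, qPCR and Illumina sequencing.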

[2] = test system: biotinyl-Leu-oxazolone; experiment: self-aminoacylation, catalytic enhancement (BLO) (fold over background); higher = more active; k-Seq, kA / k0A0; sequences stand for … in GGGAAUGGAUCCACAUCUACGAAUUC…UUCACUGCAGACUUGACGAAGCUG
Method in brief: as §1

[3] = test system: biotinyl-Ile-oxazolone; experiment: self-aminoacylation, catalytic enhancement (BIO) (fold over background); higher = more active; k-Seq, kA / k0A0; sequences stand for … in GGGAAUGGAUCCACAUCUACGAAUUC…UUCACUGCAGACUUGACGAAGCUG
Method in brief: as §1

[4] = test system: biotinyl-Met-oxazolone; experiment: self-aminoacylation, catalytic enhancement (BMO) (fold over background); higher = more active; k-Seq, kA / k0A0; sequences stand for … in GGGAAUGGAUCCACAUCUACGAAUUC…UUCACUGCAGACUUGACGAAGCUG
Method in brief: as §1

Sequence	self-aminoacylation [1]	self-aminoacylation [2]	self-aminoacylation [3]	self-aminoacylation [4]
CUACUUCAAGAAAUCGGUCUG [Fam1A.1 aminoacylation ribozyme variant]	0.782	0.849	0.737	0.786
AGGUAUGCUAAUAGUCGCAAG [Fam3.1 aminoacylation ribozyme variant]	1.53	1.83	1.81	1.84
CUACUUCAAACAAUCAGUAUG [Fam1A.1 aminoacylation ribozyme variant]	0.819	0.777	0.847	0.891
AAGUUUGCUAAUAGUCGCGAA [Fam3.1 aminoacylation ribozyme variant]	1.66	1.47	1.95	1.93
CUACUUCGAAGAAUCGGUCUG [Fam1A.1 aminoacylation ribozyme variant]	0.839	0.757	0.875	0.933
CCACACUUCAAACAAUCCGUC [Fam1B.1 aminoacylation ribozyme variant]	0.993	0.682	0.83	0.559
CCUCUCUUCAAGCAAUCGGUC [Fam1B.1 aminoacylation ribozyme variant]	1.27	1.6	1.09	1.11
UCACCCUUCAAGCAAUCGGUC [Fam1B.1 aminoacylation ribozyme variant]	1.15	0.934	1.03	0.946
GCACACUUCUAGCAAUCGGUC [Fam1B.1 aminoacylation ribozyme variant]	1.22	0.999	1.2	0.936
CCCCACUUCAAGCCAUCGGUC [Fam1B.1 aminoacylation ribozyme variant]	2.82	2.63	2.33	2.87
AUUCACCUAGGUGAUCGGGUG [Fam2.2 aminoacylation ribozyme variant]	2.62	3.27	2.52	2.81
CAACGUCAAACAAUCGGUCUG [Fam1A.1 aminoacylation ribozyme variant]	1.39	1.36	1.31	1.56
CUACUUCAAACCAUCGGUCAG [Fam1A.1 aminoacylation ribozyme variant]	0.771	0.488	0.67	0.609
CCACGCCUCAAGCAAUCGGUC [Fam1B.1 aminoacylation ribozyme variant]	1.37	0.948	0.798	0.802
CUACUUCAAACAAUCGGUCCC [Fam1A.1 aminoacylation ribozyme variant]	0.771	1.29	0.834	0.979
CUAUUUCAAACAAUCAGUCUG [Fam1A.1 aminoacylation ribozyme variant]	0.852	0.72	0.795	0.721
AAUUGUGCUAAUAGUCGCAAG [Fam3.1 aminoacylation ribozyme variant]	1.75	2.18	1.93	2.02
AAGGAUGCUAAUAGUCGCAAG [Fam3.1 aminoacylation ribozyme variant]	1.15	1.18	1.48	1.67
AAUGUUGCUAAUAGUCGCAAG [Fam3.1 aminoacylation ribozyme variant]	1.53	1.39	1.71	1.48
CCACACUUCAAAAAAUCGGUC [Fam1B.1 aminoacylation ribozyme variant]	1.22	1.34	1.5	1.16
CUACCUCCAACAAUCGGUCUG [Fam1A.1 aminoacylation ribozyme variant]	0.791	1.1	0.73	0.709

Sequence	self-aminoacylation [1]	self-aminoacylation [2]	self-aminoacylation [3]	self-aminoacylation [4]
CUGGUUCAAACAAUCGGUCUG [Fam1A.1 aminoacylation ribozyme variant]	0.971	1.23	1.01	1.02
GUUCACCUAGGUCAUCGGUUG [Fam2.2 aminoacylation ribozyme variant]	1.11	1.38	1.17	1.09
CCACACUUCCAGCAAUCGGGC [Fam1B.1 aminoacylation ribozyme variant]	2.32	1.74	2	1.72
CUACUGAAAACAAUCGGUCUG [Fam1A.1 aminoacylation ribozyme variant]	0.706	0.708	0.84	0.735
CAGUUUGCUAAUAGUCGUAAG [Fam3.1 aminoacylation ribozyme variant]	0.941	1.09	0.986	0.889
AUUAUCCUGGUCAUCGAGUAA [Fam2.1 aminoacylation ribozyme variant]	1.39	1.85	1.43	2.03
CCACACUACAAGCGAUCGGUC [Fam1B.1 aminoacylation ribozyme variant]	1.29	1.24	1.09	0.977
CUACUUCAAGUAAUCGGUCUG [Fam1A.1 aminoacylation ribozyme variant]	0.932	1.35	0.926	0.863
AUUAACGUAGGUCAUCGGGUG [Fam2.2 aminoacylation ribozyme variant]	3.05	3.84	2.52	4.05
UUUCACCGAGGUCAUCGGGUG [Fam2.2 aminoacylation ribozyme variant]	5.17	6.07	4.52	7.19
AUUAACCUAGGUAAUCGGGUG [Fam2.2 aminoacylation ribozyme variant]	1.66	2.3	1.78	2.62
CCACACUUCACGCAAUCGAUC [Fam1B.1 aminoacylation ribozyme variant]	0.606	0.514	0.568	0.55
UCAUACUUCAAGCAAUCGGUC [Fam1B.1 aminoacylation ribozyme variant]	1.02	1.19	1.18	0.995
CUACUUCAAACAAUCAGUCAG [Fam1A.1 aminoacylation ribozyme variant]	0.791	0.825	0.754	0.663
CCACGCUUCAAGCAAUCGGUC [Fam1B.1 aminoacylation ribozyme variant]	1.54	2.11	1.2	1.37
AAUCACCUCGGUCAUCGGGUG [Fam2.2 aminoacylation ribozyme variant]	5.23	4.99	4.07	4.76
CUUCACCUAGGUCAUCGGGUC [Fam2.2 aminoacylation ribozyme variant]	1.47	1.5	1.09	1.93
AUUACCCUGGACAUUGAGUGA [Fam2.1 aminoacylation ribozyme variant]	4.58	10.4	4.56	11.3
AUUCACCUAGGUCAUCGCGGG [Fam2.2 aminoacylation ribozyme variant]	2.47	4.05	2.97	3.25
AAGUUUGCAAAUAGUCGCGAG [Fam3.1 aminoacylation ribozyme variant]	1.44	1.3	1.41	1.3
AUUCACCUAGUUCAUCGGGUA [Fam2.2 aminoacylation ribozyme variant]	1.65	1.71	1.6	1.72

Sequence	self-aminoacylation [1]	self-aminoacylation [2]	self-aminoacylation [3]	self-aminoacylation [4]
ACUACCCUGGUCAUCGGGUGA [Fam2.1 aminoacylation ribozyme variant]	20.9	50.1	20.6	48
AAGUUUGCUAAUUGUCGCAAA [Fam3.1 aminoacylation ribozyme variant]	1.27	1.81	1.48	1.51
AUUACCCUGGCCGUCGAGUGA [Fam2.1 aminoacylation ribozyme variant]	1.78	1.24	1.34	1.38
AAGUUUGCUAAUAGUCGGAAU [Fam3.1 aminoacylation ribozyme variant]	1.41	1.41	1.37	1.5
CUACUUCAAGCAAUCGCUCUG [Fam1A.1 aminoacylation ribozyme variant]	0.943	1.28	0.99	1.07
ACACACUUCAAGGAAUCGGUC [Fam1B.1 aminoacylation ribozyme variant]	1.1	1.54	1.33	1.21
CUACUUCAAAAAAUCGGUCGG [Fam1A.1 aminoacylation ribozyme variant]	0.994	1.57	1.14	1.3
AAGUUUGCUAGUAGUCGCACG [Fam3.1 aminoacylation ribozyme variant]	1.05	1.12	1.06	0.765
CUACUUCAACCAAUCGGUGUG [Fam1A.1 aminoacylation ribozyme variant]	1.16	1.46	1.08	1.27
CUAGUUCAAACAAUCGGUCAG [Fam1A.1 aminoacylation ribozyme variant]	0.753	0.692	0.714	0.731
AUGACCCUGGUCAACGAGUGA [Fam2.1 aminoacylation ribozyme variant]	3.52	6.02	3.48	5.77
AAGUCUGCUAAUAGUGGCAAG [Fam3.1 aminoacylation ribozyme variant]	0.765	0.866	0.678	0.98
AUUACCCUGGUCAUUGAGUGG [Fam2.1 aminoacylation ribozyme variant]	1.76	2.66	1.39	2.54
GUACUUCAAACAAUCGGUAUG [Fam1A.1 aminoacylation ribozyme variant]	1.32	1.49	1.34	1.29
CCACACUUCAACCGAUCGGUC [Fam1B.1 aminoacylation ribozyme variant]	1.7	1.22	1.48	1.28
AUAAUUCAAACAAUCGGUCUG [Fam1A.1 aminoacylation ribozyme variant]	0.749	0.779	0.804	0.677
CUACUUCAAACAAUCGGUCCU [Fam1A.1 aminoacylation ribozyme variant]	0.777	0.78	0.658	0.834
CCACUUCAAAAAAUCGGUCUG [Fam1A.1 aminoacylation ribozyme variant]	1.13	1.61	1.55	1.05
AUUUACCUAGCUCAUCGGGUG [Fam2.2 aminoacylation ribozyme variant]	2.4	2.58	2.01	2.16
ACGCACUUCAAGCAAUCGGUC [Fam1B.1 aminoacylation ribozyme variant]	1.35	1.63	1.53	1.58
CCACACUUCAGGUAAUCGGUC [Fam1B.1 aminoacylation ribozyme variant]	1.07	0.824	0.805	0.887
